Experimental data from the supplement of paper PMC8699584.
± gives the standard deviation of the averaged measurements. The entries are a selection whose mix differs from that of the whole data set.

Assays:
Mv4-11 = assay: cell viability relative to DMSO control (bortezomib = 0%); higher = less growth inhibition; settings: 10 nM; 72 h
Outline: (§1)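 Cell viability was assessed by CellTiter-Glo luminescence. Acute myeloid leukemia cells were seeded at 1000 cells per well in 50 µL on a 384-well library of 679 compounds at a single 10 nM dose for 72 h. Per-plate linear regression set DMSO-treated cells at 100% and positive-control-treated cells at 0%.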

Molm13 = assay: as above; settings: 10 nM; 72 h
Outline: as §1

**Q.** Which cell viability (Mv4-11) does the source give for `COc1cc(N2CCN(C(C)=O)CC2)ccc1Nc1ncc(Cl)c(Nc2ccc(N3CCN(C(C)=O)CC3)cc2OC)n1` here?
**A.** 109.6 ± 0.24%

**Q.** What about the cell viability (Molm13) of the same compound?
**A.** 117 ± 29%

**Q.** With `Cc1ccccc1-n1c(Cn2nc(-c3cccc(O)c3)c3c(N)ncnc32)nc2cccc(C)c2c1=O` as the compound, how does the cell viability (Mv4-11) read?
**A.** 91.2 ± 11%

**Q.** And the cell viability (Molm13)?
**A.** 88.9 ± 6.4%
